Reference: PubChem BioAssay AID493246 (Drosophila RNAi Screening Center, 2011)
The screen tested about 21,000 reagents; shown is an unselected part of those with a known target gene and a result. Over the whole deposit, 429 (2%) are marked active. 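Values are raw and not normalised between plates; calls rest on per-plate z-scores that were not deposited.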 Not given: the amount of reagent, the time to read-out.

- Screen: 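Identify essential fly genes by loss of cell viability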 (primary screen)
- Cell system: Drosophila Kc and S2R+ cells
- Reagent: long dsRNA against Drosophila genes
- Measurement: 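Cell number per well after knock-down, printed as raw plate values; calls were based on per-plate z-scores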
- Reading the numbers: Kc cell number and S2R+ cell number: higher = more cells remaining
- Hit rule: 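Counted as a hit if cell number falls by a z-score of at least 3 within its plate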

CG14246 [DRSC14741] → Kc cell number, rep 1 = 1.37e6; Kc cell number, rep 2 = 1.33e6; S2R+ cell number, rep 1 = 9.66e5; S2R+ cell number, rep 2 = 1.12e6; call = inactive
CG17816 [DRSC15277] → Kc cell number, rep 1 = 1.38e6; Kc cell number, rep 2 = 1.37e6; S2R+ cell number, rep 1 = 1.05e6; S2R+ cell number, rep 2 = 1.21e6; call = inactive
sub [DRSC06125] → Kc cell number, rep 1 = 1.35e6; Kc cell number, rep 2 = 1.48e6; S2R+ cell number, rep 1 = 1.16e6; S2R+ cell number, rep 2 = 1.11e6; call = inactive
ms(2)34Fe [DRSC01905] → Kc cell number, rep 1 = 1.54e6; Kc cell number, rep 2 = 1.61e6; S2R+ cell number, rep 1 = 1.26e6; S2R+ cell number, rep 2 = 1.41e6; call = inactive
CG13230 [DRSC06350] → Kc cell number, rep 1 = 1.55e6; Kc cell number, rep 2 = 1.54e6; S2R+ cell number, rep 1 = 1.18e6; S2R+ cell number, rep 2 = 1.33e6; call = inactive
Meltrin [DRSC16274] → Kc cell number, rep 1 = 1.54e6; Kc cell number, rep 2 = 1.51e6; S2R+ cell number, rep 1 = 1.29e6; S2R+ cell number, rep 2 = 1.29e6; call = inactive
tadr [DRSC03177] → Kc cell number, rep 1 = 1.39e6; Kc cell number, rep 2 = 1.46e6; S2R+ cell number, rep 1 = 1.09e6; S2R+ cell number, rep 2 = 9.04e5; call = inactive
CG15760 [DRSC19725] → Kc cell number, rep 1 = 1.67e6; Kc cell number, rep 2 = 1.58e6; S2R+ cell number, rep 1 = 1.16e6; S2R+ cell number, rep 2 = 1.32e6; call = inactive
CG13766 [DRSC02271] → Kc cell number, rep 1 = 1.50e6; Kc cell number, rep 2 = 1.41e6; S2R+ cell number, rep 1 = 1.08e6; S2R+ cell number, rep 2 = 1.21e6; call = inactive
CG15019 [DRSC08473] → Kc cell number, rep 1 = 1.74e6; Kc cell number, rep 2 = 1.63e6; S2R+ cell number, rep 1 = 9.38e5; S2R+ cell number, rep 2 = 1.08e6; call = inactive
CG7694 [DRSC16288] → Kc cell number, rep 1 = 1.24e6; Kc cell number, rep 2 = 1.23e6; S2R+ cell number, rep 1 = 1.09e6; S2R+ cell number, rep 2 = 1.19e6; call = inactive
YME1L [DRSC04378] → Kc cell number, rep 1 = 1.18e6; Kc cell number, rep 2 = 1.25e6; S2R+ cell number, rep 1 = 9.90e5; S2R+ cell number, rep 2 = 1.11e6; call = inactive

Copied from the list:
YME1L [DRSC04378], Kc cell number, rep 2 = 1.25e6
tadr [DRSC03177], S2R+ cell number, rep 1: 1.09e6
